# Results: the supplement of paper PMC12067093, “Discovery and optimisation of a covalent ligand for TRIM25 and its application to targeted protein ubiquitination” (Chemical Science, 2025)
# The list shows a part of the results.
# Compound: CC1Cc2ccccc2N1C(=O)C1CCCN(C1)C(=O)CCl (mixture of isomers) [TRIM25 ligand 11 (diastereomer mixture)]
# Experiment: probe-labelled cysteine peptide fold change vs DMSO (competition) (log2 fold change); higher = less target engagement (more negative = stronger competition)
# Conditions: THP-1, incubation time: 4 h
# 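Also: competitive chemoproteomic profiling in live THP-1 cells with an iodoacetamide desthiobiotin (IA-DTB) probe, comparing probe-labelled peptide intensities in compound-treated cells against DMSO-treated controls.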
Target,probe-labelled cysteine peptide fold change (10 µM),probe-labelled cysteine peptide fold change (50 µM)
HK3_P52790_409_AAQLCAAALAAVLSCLQHSR (UniProt P52790),-0.0103,-0.184
HELZ_P42694_696_ILICTHSNSAADLYIK (UniProt P42694),0.153,0.287
HDGFL2_Q7Z4V5-2_631_CGSSEDLHDVR (UniProt Q7Z4V5),-0.145,-0.267
HECTD3_Q5T447_356_IVECRDDGIDVR (UniProt Q5T447),0.0335,0.157
HK1_P19367_628_ATDCVGHDVVTLLR (UniProt P19367),0.0386,0.037
HEATR5B_Q9P2D3_870_CAAGEALGR (UniProt Q9P2D3),-0.0752,-0.0703
HDAC6_Q9UBN7_752_GDPLGGCQVSPEGYAHLTHLLMGLASGR (UniProt Q9UBN7),0.145,-0.232
HECTD1_Q9ULT8_316_CVLDTMR (UniProt Q9ULT8),0.0375,-0.0646
HEATR1_Q9H583_631_SGICSLHPLLR (UniProt Q9H583),0.186,0.109
HCCS_P53701_66_AYEYVECPIR (UniProt P53701),-0.0751,-0.317
HINT2_Q9BX68_75_SLPADILYEDQQCLVFR (UniProt Q9BX68),0.0654,-0.102
HK1_P19367_158_KLPVGFTFSFPCQQSK (UniProt P19367),-0.196,-0.0706
HMBS_P08397_261_HLEGGCSVPVAVHTAMK (UniProt P08397),0.00236,-0.101
HEATR5B_Q9P2D3_718_SLCHYDDSVLLGSWLQETDHK (UniProt Q9P2D3),0.13,-0.0436
HIRIP3_Q9BW71_86_RPPTPCSDPER (UniProt Q9BW71),0.0927,-0.00418
HEATR6_Q6AI08_846_ALGVYVLFPCLR (UniProt Q6AI08),-0.322,-0.0918
HBS1L_Q9Y450_529_LLAMPPNETCTVK (UniProt Q9Y450),0.0519,0.0298
HIGD2A_Q9BW72_53_ENPVVPIGCLATAAALTYGLYSFHR (UniProt Q9BW72),0.118,-0.132
HDGF_P51858_108_KSCVEEPEPEPEAAEGDGDKK (UniProt P51858),-0.541,-0.677
HDAC2_Q92769_13_VCYYYDGDIGNYYYGQGHPMKPHR (UniProt Q92769),-0.245,-0.308
HEATR5B_Q9P2D3_1262_IINLCENADQAHFDLALAR (UniProt Q9P2D3),-0.117,0.001

Target,probe-labelled cysteine peptide fold change (10 µM),probe-labelled cysteine peptide fold change (50 µM)
HCLS1_P14317_470_CHGHFGLFPANYVK (UniProt P14317),-0.0772,-0.158
HELLS_Q9NRZ9_836_ILENSEDSSPECLF (UniProt Q9NRZ9),0.112,-0.291
HEATR1_Q9H583_182_GTLITHCYK (UniProt Q9H583),0.0157,0.191
HERC2_O95714_2609_DGLHDLNVQCDWQQK (UniProt O95714),-0.0461,0.0197
HIP1_O00291_220_SVSVTAAGQCR (UniProt O00291),-0.0445,0.00279
HDAC5_Q9UQL6_696_HQCMCGNTHVHPEHAGR (UniProt Q9UQL6),0.0792,0.0793
HERC1_Q15751_3002_RNHPGCGR (UniProt Q15751),0.288,0.287
HERC2_O95714_4517_DESGANRDCYLLSPAAR (UniProt O95714),0.0289,0.256
HCFC1_P51610_326_AGHCAVAINTR (UniProt P51610),0.0333,0.112
HDAC6_Q9UBN7_523+539_CLTLTPRPATEAELLTCHSAEYVGHLR (UniProt Q9UBN7),-0.39,-0.153
HDAC10_Q969S8_145_AAANGFCVFNNVAIAAAHAK (UniProt Q969S8),-0.0235,-0.0112
HELZ_P42694_100_AVLCCMQLK (UniProt P42694),-0.0761,-0.157
HERC2_O95714_33_DGLCGLWNEMVK (UniProt O95714),-0.029,0.0117
HINT1_P49773_38_CLAFHDISPQAPTHFLVIPK (UniProt P49773),0.0503,-0.0538
HK1_P19367_834_AAQLCGAGMAAVVDK (UniProt P19367),0.0124,0.0763
HDLBP_Q00341_878_RIQEIIEDLEAQVTLECAIPQK (UniProt Q00341),-0.0308,-0.109
HDAC1_Q13547_284_CVEFVK (UniProt Q13547),0.0227,0.0441
HECTD4_Q9Y4D8_2097_VYFTYCGQR (UniProt Q9Y4D8),0.00193,0.145
HK2_P52789_909_GAALITAVACR (UniProt P52789),-0.0724,0.0933
HGH1_Q9BTY7_51_HVLALTGCGPGR (UniProt Q9BTY7),0.187,0.171
HECTD1_Q9ULT8_254_MAAAGGTVSGPSSACKPGR (UniProt Q9ULT8),0.0653,-0.071

Target,probe-labelled cysteine peptide fold change (10 µM),probe-labelled cysteine peptide fold change (50 µM)
HDAC10_Q969S8_508_LLCVALGQLDRPPDLAHDGR (UniProt Q969S8),-0.0466,0.0946
HAUS6_Q7Z4H7_32_EHLWMYLQALGFEPGPATIACGK (UniProt Q7Z4H7),0.11,-0.0905
HEATR1_Q9H583_2048_HLIPCIAQFSVAMADDSLWK (UniProt Q9H583),0.378,0.121
HDAC6_Q9UBN7_417_ALAEGVSASLHTLLGDPCPMLESPGAPCR (UniProt Q9UBN7),-0.0346,-0.0275
HAUS6_Q7Z4H7_443_QHNQENGCR (UniProt Q7Z4H7),0.106,0.0621
HK2_P52789_158_KLPLGFTFSFPCHQTK (UniProt P52789),-0.00307,-0.123
HERC4_Q5GLZ8_58+60_HTVFVLDDGTVYTCGCNDLGQLGHEK (UniProt Q5GLZ8),0.0474,-0.187
HEATR1_Q9H583_1899_AQHSENDLEEVGKTENCIIDCLVAMVVK (UniProt Q9H583),0.0186,0.268
HCFC2_Q9Y5Z7_125_VKPHPPPSGLPPCPR (UniProt Q9Y5Z7),-0.227,0.0361
HERC2_O95714_2881_TININPSDTTVPLLNDCTEYHR (UniProt O95714),0.0209,0.194
HDAC6_Q9UBN7_539_PATEAELLTCHSAEYVGHLR (UniProt Q9UBN7),0.254,-0.00904
HGD_Q93099_180_MLVQPNEICVIQR (UniProt Q93099),0.479,0.382
HIF1AN_Q9NWT6_236_CILFPPDQFECLYPYPVHHPCDR (UniProt Q9NWT6),0.102,0.0986
HCCS_P53701_176+178_WEALHAAECPCGPSLIR (UniProt P53701),-0.0972,-0.18
HERC2_O95714_4308_VACGSAHTLAWSTSK (UniProt O95714),0.238,-0.0665
HK1_P19367_368+375_LGVEPSDDDCVSVQHVCTIVSFR (UniProt P19367),-0.199,-0.036
HEATR3_Q7Z4Q2_655_GNYSTDQLCVLDNVK (UniProt Q7Z4Q2),0.0496,-0.071
HDAC2_Q92769_285_CVEVVK (UniProt Q92769),0.135,0.259
HK1_P19367_256_MCINTEWGAFGDDGSLEDIRTEFDREIDRGSLNPGK (UniProt P19367),-0.265,-0.146
HEATR1_Q9H583_303_DGLSCLIVLLQR (UniProt Q9H583),-0.198,0.192
HLA-A_P01892_125_MYGCDVGSDWR (UniProt P01892),-0.0353,-0.0961

Target,probe-labelled cysteine peptide fold change (10 µM),probe-labelled cysteine peptide fold change (50 µM)
HERC4_Q5GLZ8_160_ASEVFCWGQNK (UniProt Q5GLZ8),-0.0496,0.0671
HDGF_P51858_108_SCVEEPEPEPEAAEGDGDKK (UniProt P51858),-0.212,-0.27
HBS1L_Q9Y450_84_LYSCLDHMR (UniProt Q9Y450),-0.105,-0.228
HEXIM2_Q96MH2_80_TQSPGGCSAEAVLAR (UniProt Q96MH2),0.0876,-0.497
HELLS_Q9NRZ9_169_ENEDENSSSTNLCVEDLQK (UniProt Q9NRZ9),-0.199,-0.275
HEATR6_Q6AI08_426_QGALVCFLSTIK (UniProt Q6AI08),0.0666,0.16
HLTF_Q14527_896_VESIQCFQNTEAGSPTIMLLSLK (UniProt Q14527),0.0523,-0.00182
HDLBP_Q00341_636_ANCEAAR (UniProt Q00341),0.239,0.338
HELB_Q8NG08_379_KPPWHLCVDVEK (UniProt Q8NG08),-0.115,-0.0158
HDAC7_Q8WUI4_533_HQCSCGDNSR (UniProt Q8WUI4),0.42,0.18
HK1_P19367_813_AILQQLGLNSTCDDSILVK (UniProt P19367),0.12,0.0879
HMBS_P08397_114_DLPTVLPPGFTIGAICK (UniProt P08397),0.000187,-0.00857
HAUS6_Q7Z4H7_743_ILDHLEVSCNKPSTNK (UniProt Q7Z4H7),-0.00729,-0.047
HEXB_P07686_360_CWESNPK (UniProt P07686),-0.0387,0.0207
HERC2_O95714_1201_ERDDHEELAWPGIMESFFTGQNCR (UniProt O95714),0.231,-0.0033
HERC2_O95714_664_CGSQFSIALTK (UniProt O95714),-0.0687,-0.00167
HLA-A_P01891_363_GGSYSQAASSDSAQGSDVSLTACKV (UniProt P01891),0.000689,-0.0625
HELB_Q8NG08_350_SCVFPYDLYHAER (UniProt Q8NG08),-0.151,0.0954
HCK_P08631_241_LSVPCMSSK (UniProt P08631),0.0783,-0.0354
HDAC9_Q9UKV0_353_CETQTLR (UniProt Q9UKV0),0.0888,0.0579
HLA-C_P04222_345+364_GGSCSQAASSNSAQGSDESLIACKA (UniProt P04222),-0.224,-0.356

# Part of the list above, as tab-separated lines:
Target	probe-labelled cysteine peptide fold change (10 µM)	probe-labelled cysteine peptide fold change (50 µM)
HECTD3_Q5T447_356_IVECRDDGIDVR (UniProt Q5T447)	0.0335	0.157
HEATR1_Q9H583_631_SGICSLHPLLR (UniProt Q9H583)	0.186	0.109
HINT1_P49773_38_CLAFHDISPQAPTHFLVIPK (UniProt P49773)	0.0503	-0.0538
HIF1AN_Q9NWT6_236_CILFPPDQFECLYPYPVHHPCDR (UniProt Q9NWT6)	0.102	0.0986
HCCS_P53701_176+178_WEALHAAECPCGPSLIR (UniProt P53701)	-0.0972	-0.18
HCK_P08631_241_LSVPCMSSK (UniProt P08631)	0.0783	-0.0354
